PubChem BioAssay AID493014 (National Center for Advancing Translational Sciences (NCATS), 2011)
Screen size: about 340,000 compounds; about 170 (0.05%) were called active. Inconclusive results, whose numbers are uncertain, are shown with a selection of clear calls. Calls come from the whole dose curve; as a rule, active = well fitted inhibition curve with a large enough effect in the signal ratio, with a control signal flat (not every such curve was filed as active); inconclusive = small, poorly fitted or top-dose-only effect, or effect the other way, or a change in a side signal; inactive = flat fitted curve, though single readings scatter; the % refers to the signal ratio. Potencies beside an inconclusive call are fits to weak or partial responses and may not hold up.

assay: qHTS Assay to Find Inhibitors of Chronic Active B-Cell Receptor Signaling; details: ABC-DLBCL IkBa-CBG/CBR reporter, luminescence ratio (green luciferase fused to IkBa over red control in TMD8 lymphoma cells), 4 h; activity change, negative = inhibition: at 46.1 µM (top of the series);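 for activity change, negative = inhibition: plate controls were basal doxycycline-induced cells for no effect and cells given 10 µM MG132 for full effect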
In short: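 TMD8 human ABC-DLBCL cells with doxycycline-inducible IκBα–green luciferase fusion and unfused red luciferase, in 0.5% FBS medium; compounds up to 46 uM, 4 h at 37C. Green/red luminescence ratio, filter-overlap corrected, fitted to concentration-response curves.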
Potency is the fitted concentration of half-maximal effect.

Compound	activity change, negative = inhibition	Potency
O=C(O)c1ccccc1NS(=O)(=O)c1ccc2c3c(cccc13)C(=O)N2	inconclusive: 6.59%	
COc1ccc2[nH]c(C)c(CCN(Cc3cccs3)C(=S)Nc3ccc(F)cc3)c2c1	inconclusive: 4.64%	
Cc1csc(NC(=O)CSc2nc(=O)cc(N)n2-c2ccc(F)cc2)n1	inconclusive: -0.465%	
C=CCNC(=O)c1onc(CSc2ccccc2F)c1C(=O)O		inconclusive: 35.5 µM [rising, single point]
CCCCCCOC1(c2ccccc2)OC(=O)c2ccccc21 (stereo not given)	inconclusive: 20.2%	
COc1ccc2[nH]c3c(c2c1)CCN1C(=O)C(CC(=O)NC(C)(C)C)C[C@H](C(=O)N2CCOCC2)[C@@]31CCC1CCCC1 (stereo not given in full)	inconclusive: -3.05%	
Fc1ccc(NCc2nnc(SCc3nnc(-c4ccccc4)o3)n2CC2CCCO2)cc1 (stereo not given)	inconclusive: -3.69%	
Cc1ccc(CCN=c2c([N+](=O)[O-])nn(-c3ccccc3)n2O)cc1	inactive: 0.404%	
CCOc1ccc(NC(=S)/C(=C(\[O-])c2ccc(C)c([N+](=O)[O-])c2)[n+]2ccccc2)cc1	inconclusive: 12.9%	
Cc1cccc(-n2nnc(C(=O)N3CCc4ccccc4C3)c2N)c1		inconclusive: 11.2 µM [falling, partial curve]
CCOC(=O)c1cc([N+](=O)[O-])sc1N	inactive: 2.64%	
CCn1nccc1C(=O)Nc1cc(Cl)cc(Cl)c1		inconclusive: 20.6 µM [falling, partial curve]
CCNC(=S)N(CCc1c(C)[nH]c2ccc(C)cc12)Cc1cc(OC)c(OC)c(OC)c1	inconclusive: -3.58%	
O=C1C(Cl)=C(NS(=O)(=O)c2ccc([N+](=O)[O-])cc2)C(=O)c2ccccc21	inconclusive: -17.8%	
COC(=O)c1ccc(CNC(=O)COC(=O)/C=C/c2ccc(OC)c(OC)c2)cc1	inconclusive: 0.911%	
COc1ccc(C(=O)N/N=C/c2ccc(OC(=O)c3cccc4ccccc34)c([N+](=O)[O-])c2)cc1		inconclusive: 4.61 µM [rising, single point]
COCCn1nnnc1C(c1ccc(OC)cc1OC)N1CCN(c2ccccc2)CC1 (stereo not given)	inconclusive: 0.711%	
Cc1cc(C(=O)N/N=C/c2ccc(-c3ccc(C)c(Cl)c3)o2)n[nH]1	inconclusive: -4.72%	
CCc1cc2c(=O)[nH]c(-c3ccccn3)nc2s1	inconclusive: 285% [cytotoxic]	
Cc1ccc(C(=O)Nc2sc(Cc3ccc4c(c3)OCO4)c(C)c2C(N)=O)cc1	inconclusive: -10.2%	
COc1ccc(C(=O)NC2CCN(C(=O)NC3CCCCC3)CC2)cc1	inconclusive: 0.982%	
COc1ccccc1NC(=O)N(Cc1ccco1)Cc1cc2cccc(C)c2[nH]c1=O	inconclusive: 15.9%	
COc1cc(C2c3c(n[nH]c3C)C(=O)N2c2ccc(C)cc2)ccc1O (stereo not given)	inconclusive: -10.1%	
COc1ccc(/C=N/NC(=O)c2cccnc2)cc1O	inconclusive: -0.797%	
CSCC(=O)Nc1nc(-c2ccc3c(c2)OCCO3)cs1		inconclusive: 11.2 µM [falling, partial curve, poor fit]
CCOC(=O)Nc1nnc(-c2ccc(OC)cc2)s1	inconclusive: 9.11%	
COc1ccc(C(=O)/C=C/c2cccc(OCc3ccccc3)c2)cc1CSCC(=O)O		inconclusive: 25.1 µM [falling, single point]

Compound	activity change, negative = inhibition	Potency
O=[N+]([O-])c1ccccc1S(=O)(=O)N1CCN(c2ccccc2)CC1	inconclusive: 1.14%	
Cc1ccc(N2CC(c3nc4ccccc4[nH]3)CC2=O)c(C)c1 (stereo not given)	inconclusive: 7.9%	
O=C(O)CSc1nnc(CNc2cccc(C(F)(F)F)c2)n1Cc1ccco1	inconclusive: -8.82%	
Cc1ccc(C(=O)N/N=C\c2ccc(-c3ccc(Cl)c(Cl)c3)o2)cn1	inactive: 4.96%	
COc1ccc(/C=N/NC(=O)c2ccc(Cl)cc2)cc1Cn1cc(Cl)cn1	inconclusive: 8.01%	
Cc1c(-c2cccc(Cl)c2)nc2ccccc2c1C(=O)NC1CC1	inconclusive: 9.71%	
Cc1ccc(-c2nc(CSCC(=O)NC3CCN(Cc4ccccc4)CC3)c(C)o2)cc1	inconclusive: -0.755%	
C=CCn1cnc2c(oc3ccccc32)c1=O	inconclusive: -0.0707%	
CC1(C)Cc2nc3oc4c(N5CCOCC5)ncnc4c3cc2CO1	inactive: -13.2%	
Cc1cccc(C)c1OCC(=O)Nc1cccc(-c2nnc(-c3ccccc3)o2)c1	inconclusive: 7.41%	
CCc1cc2c(=O)c(-c3cnn(-c4ccccc4)c3)c(C)oc2c(CN2CCCCC2)c1O	inactive: 17.8%	
CN(C)CCNc1ccc(-c2nn(C)c(=O)c3ccccc23)cc1[N+](=O)[O-]	inactive: -1.22%	
COCCCNC(=O)c1ccc(N2CCOCC2)c(NS(=O)(=O)c2ccc(OC)cc2)c1	inactive: -14.8%	
COc1cc2ncnc(Nc3cccc(Cl)c3)c2cc1OC		inconclusive: 35.5 µM [falling, single point]
COc1ccccc1NC(=O)COC(=O)Cc1c[nH]c2ccccc12		inconclusive: 2.82 µM [falling, full curve]
Nn1cc(-c2ccccc2)nc1SCC(=O)NC1CCS(=O)(=O)C1 (stereo not given)		inconclusive: 5.62 µM [falling, partial curve, poor fit]
Nc1ccn(CC(=O)NCCc2ccccn2)c(=O)n1	inactive: -1.23%	
CN(CCCNC(=O)c1ccc(/C=N/O)nc1)CCCN(C)Cc1ccccc1	inactive: -3.87%	
Cc1ccccc1-c1nc2sc3c(c2c(=O)n1N)CCCC3		inconclusive: 23.1 µM [falling, single point]
CN1CCN(S(=O)(=O)c2ccc(NC(=O)c3csc4ccccc34)cc2)CC1	inactive: -4.7%	
COc1ccc(C(=O)NCc2ccc3c(c2)OCO3)cc1	inconclusive: -4.19%	
Cc1noc(C)c1CSc1nc2[nH]ncc2c(=O)n1-c1ccccc1		inconclusive: 1.64 µM [falling, partial curve]
C/C(=N\NC(=O)c1ccccn1)c1ccc(Cl)cc1		inconclusive: 35.5 µM [rising, single point]
Cc1c(OCC(=O)N2CCC(C(=O)NCCCC(=O)O)CC2)ccc2c1oc(=O)c1ccccc12	inconclusive: -27.7%	
c1ccc2c(c1)ncn2CCC1CCCCC1	inactive: 3.5%	
C[C@H](CO)N1C[C@H](C)[C@@H](CN(C)C(=O)Nc2ccc3c(c2)OCO3)Oc2c(NC(=O)Cc3ccccc3)cccc2C1=O	inactive: 0.524%	
Cc1ccc(N/C=C2\C(=O)N(c3ccc(F)cc3F)C(c3cccnc3)S2(=O)=O)cc1 (stereo not given)	inconclusive: -1.51%	

Reprinted at random: 4 entries already listed
Compound	activity change, negative = inhibition	Potency
Cc1cccc(C)c1OCC(=O)Nc1cccc(-c2nnc(-c3ccccc3)o2)c1	inconclusive: 7.41%	
CN(CCCNC(=O)c1ccc(/C=N/O)nc1)CCCN(C)Cc1ccccc1	inactive: -3.87%	
Cc1c(OCC(=O)N2CCC(C(=O)NCCCC(=O)O)CC2)ccc2c1oc(=O)c1ccccc12	inconclusive: -27.7%	
Nc1ccn(CC(=O)NCCc2ccccn2)c(=O)n1	inactive: -1.23%	

More results:

Compound	activity change, negative = inhibition	Potency
CCN(C1CCCCC1)S(=O)(=O)CCNC(=O)c1ccccc1	inactive: 8.87%	
COCCCNC(=S)N/N=C/c1ccc2c(c1)OCO2		inconclusive: 11.2 µM [falling, partial curve, poor fit]
CCOc1cccc(-c2nnc3n2N=C(c2cc(OC)ccc2OC)CS3)c1	inconclusive: -13.7%	
O=S(=O)(c1ccc2ccccc2c1)N1CCOCC1	inactive: 0.793%	
NC(=O)CSc1nc(N)c2c3c(sc2n1)CCCCC3		inconclusive: 20 µM [falling, single point]
C#CCn1c(S(=O)(=O)Cc2ccc(C)cc2)nc(-c2ccccc2)c1-c1ccccc1	inactive: 4.36%	
COCCn1c(N2CCN(c3ccccc3)CC2)nc2c1c(=O)n(C)c(=O)n2C	inactive: 0.0906%	
CCc1nnc(NC(=O)CN2CCN(Cc3cccc(F)c3)CC2)s1		inconclusive: 17.8 µM [falling, partial curve, poor fit]
CC1=CC2=NC(=O)/C(=C\c3cccn3CCOc3cc(C)cc(C)c3)C(=N)N2O1	inactive: -0.608%	
COc1ccc(NC(=O)N(C)C[C@H]2Oc3ccc(NS(=O)(=O)c4cccs4)cc3C(=O)N([C@@H](C)CO)C[C@@H]2C)cc1	inconclusive: 3.39%	
CC1CCC(NS(=O)(=O)c2ccc(Cl)s2)CC1 (stereo not given)	inconclusive: 1.04%	
C=CCNC(=S)Nc1cccc2[nH]ncc12	inactive: 4.26%	
Cc1ccc(CONC(=O)c2ccc(C)cc2)cc1		inconclusive: 32.6 µM [falling, partial curve, poor fit]
CCn1c(-c2cc(-c3cc(OC)ccc3OC)nc3ccccc23)n[nH]c1=S		inconclusive: 5.17 µM [falling, partial curve]
CN1CCN(CCCNC(=O)Nc2ccc([N+](=O)[O-])cc2)CC1	inconclusive: 9.24%	
CCC(C)Nc1nc2c(c(=O)n(C)c(=O)n2C)n1Cc1ccc(Cl)cc1 (stereo not given)	inconclusive: 1.01%	
CCOC(=O)c1c(NC(=O)C2C3CCC(O3)C2C(=O)O)sc(C)c1-c1ccc(F)cc1 (stereo not given)	inconclusive: 17.3%	
Cc1cc(C)nc(N/N=C/c2cn[nH]c2-c2ccccc2)n1		inconclusive: 35.5 µM [falling, single point]
S=c1[nH]c(-c2ccccc2)cn1-c1ccccc1	inactive: 5.6%	
Cc1cccc(C(=O)NC2CCN(S(=O)(=O)c3ccc(F)cc3)CC2)c1	inconclusive: 2.35%	
Cc1ccc(NC(=O)CN(C)S(=O)(=O)c2ccc3c(c2)n(C)c(=O)c(=O)n3C)c(C)c1	inactive: -2.87%	
Cc1cccc(NC(=O)CCCn2cc([N+](=O)[O-])cn2)n1	inactive: -13.3%	
COc1ccc(C(=O)C2CC2c2ccc3c(c2)OCO3)cc1 (stereo not given)	inconclusive: -10.6%	
O=C(Cn1c(=O)oc2ccccc21)Nc1ccc(F)cc1		inconclusive: 5.01 µM [falling, partial curve, poor fit]
O=C(Nc1nc2ccc(F)cc2s1)C1CCCO1 (stereo not given)		inconclusive: 17.8 µM [falling, single point]
CC(=O)/C(N=Nc1ccc(C(=O)O)cc1)=C(\C)O		inconclusive: 10 µM [falling, partial curve]
